From PubChem BioAssay AID493027 (The Scripps Research Institute Molecular Screening Center, 2011) come the findings set out here.

The chains behind the UniProt entries cited, without tags or fusion partners. Where a name states a change or a piece, a line headed by the entry shows the natural chain unless it says otherwise.
UniProt O60240: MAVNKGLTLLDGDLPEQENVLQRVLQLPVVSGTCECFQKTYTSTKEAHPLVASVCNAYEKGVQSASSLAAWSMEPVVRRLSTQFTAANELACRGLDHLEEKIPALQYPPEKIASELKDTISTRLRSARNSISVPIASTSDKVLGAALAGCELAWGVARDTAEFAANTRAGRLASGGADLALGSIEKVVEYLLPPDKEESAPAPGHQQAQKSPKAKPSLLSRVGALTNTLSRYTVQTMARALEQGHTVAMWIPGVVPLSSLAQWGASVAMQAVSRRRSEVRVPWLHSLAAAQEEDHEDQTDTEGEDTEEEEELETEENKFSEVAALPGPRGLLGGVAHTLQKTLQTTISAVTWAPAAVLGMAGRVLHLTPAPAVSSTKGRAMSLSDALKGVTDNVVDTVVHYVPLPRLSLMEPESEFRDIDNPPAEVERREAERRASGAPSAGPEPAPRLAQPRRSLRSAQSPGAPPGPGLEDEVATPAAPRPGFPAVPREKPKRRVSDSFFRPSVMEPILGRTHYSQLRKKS
UniProt Q8WTS1: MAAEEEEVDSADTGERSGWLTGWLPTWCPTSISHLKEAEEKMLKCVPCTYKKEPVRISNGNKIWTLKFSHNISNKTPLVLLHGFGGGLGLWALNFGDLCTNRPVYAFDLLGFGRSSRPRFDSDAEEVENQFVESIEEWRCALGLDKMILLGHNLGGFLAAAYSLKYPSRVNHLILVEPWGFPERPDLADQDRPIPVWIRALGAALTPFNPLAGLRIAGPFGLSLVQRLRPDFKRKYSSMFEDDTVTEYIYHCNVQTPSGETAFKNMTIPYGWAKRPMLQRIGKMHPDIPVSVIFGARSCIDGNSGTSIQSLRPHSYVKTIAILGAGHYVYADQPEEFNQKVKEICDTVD

SMILES strings stand for the structures. Several values for one entry are separate records, joined by “and”; a condition that tells them apart may be missing. Equal values may be shown once. Among all 2,000 compounds or so, about 45 (2%) were called active.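 The calls were made as follows: active = inhibition above the screen-wide mean inhibition plus 3 SD (cut at about 44% in these data); inactive = the rest.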 Some of the results follow.

The target in this assay is Perilipin-1 (Homo sapiens) + 1-acylglycerol-3-phosphate O-acyltransferase ABHD5 (Homo sapiens) (UniProt O60240+Q8WTS1). The experiment in a line: ABHD5-PLIN1 interaction inhibitors, pilot screen, cell lysate, split luciferase complementation, luminescence, NIH validation set (AID 493027).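 Also: 0% = DMSO wells with the 100% control not disclosed.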 The note with it: split G. princeps luciferase complementation, 4 h, at 7.9 µM, stronger effect = higher value.
Take `COc1ccc(CN2CC3CC(C2)c2cccc(=O)n2C3)cc1OC` (stereo not given): the inhibition was inactive: -7.42%. Regarding `COc1cccc(Oc2c(C)oc3cc(OC(=O)N(C)C)ccc3c2=O)c1`, the inhibition is inactive: 2.5%.

Regarding `COc1ccc(NC2=NCC(C)S2)cc1` (stereo not given), the inhibition was inactive: -2.71%.

As for `c1ccc2c3c([nH]c2c1)CNCC3`, the inhibition is inactive: -3.37%. Take `Cn1c(O)c(C=NCCc2c[nH]c3ccccc23)c(=O)n(C)c1=O`: the inhibition is inactive: 3.68%.

For the compound `CN(C)[C@@H]1C(=O)C(C(N)=O)=C(O)[C@@]2(O)C(=O)C3=C(O)c4c(O)cccc4[C@@](C)(O)[C@H]3[C@H](O)[C@@H]12`, the inhibition was inactive: 12.9%. Consider `CCOc1ccc(N2C(=O)NC(=O)/C(=C\c3cc(OC)c(OC)cc3[N+](=O)[O-])C2=O)cc1`, for which the inhibition is active: 63.9%. For the compound `CC(C)CCC1(CN2CCCC2=O)C(=O)NC(=O)NC1=O`, the inhibition was inactive: 2.92%. Under `CC(=O)[C@H]1CC[C@H]2[C@@H]3CC[C@H]4C[C@H](O)CC[C@]4(C)[C@H]3C(=O)C[C@]12C` stands inactive: -9%; under `CCN(CC)CCOC(=O)C(O)(c1ccccc1)c1ccccc1`, inactive: -3.64%. Consider `Cc1ccc2c(c1)C1CN(C)CCC1N2C(=O)Nc1cccc(Cl)c1` (stereo not given), for which the inhibition is inactive: 2.94%. With `C[C@]12CC[C@@H]3c4ccc(O)c(O)c4CC[C@H]3[C@@H]1CC[C@@H]2O`, the inhibition was inactive: 24.6%. In the case of `O=C1C=Cc2ccccc2C1=O`, the inhibition was inactive: 25.2%.

Regarding `C[C@]12CCC(=O)C(O)=C1CC[C@@H]1[C@@H]2CC[C@]2(C)C(=O)CC[C@@H]12`, the inhibition is inactive: -6.8%.

As to `CCCC(=O)OCC[N+](C)(C)C`, the inhibition was inactive: -8.5%. For `CC(=O)c1ccc(-c2ccccc2)cc1`, the inhibition is inactive: 1.86%. For the compound `O=Cc1cn(Cc2ccc(F)cc2)c2ccccc12`, the inhibition was inactive: -2.59%. For `CC(C)C(=O)Nc1ccc(S(=O)(=O)N2CC3CC(C2)c2cccc(=O)n2C3)cc1` (stereo not given), the inhibition was inactive: -8.76%. In the case of `c1ccc2c(c1)[nH]c1cnccc12`, the inhibition was inactive: -6.89%.

For `COc1ccccc1CN1CCCCC1c1cccnc1` (stereo not given), the inhibition was inactive: -6.44%. Take `CC12CN3CC(C)(CN(C1)C3c1cccs1)C2=O` (stereo not given): the inhibition was inactive: -10.9%. With `Nc1ccc([As](=O)(O)O)cc1`, the inhibition is inactive: 2.9%. Consider `CC(=O)Nc1cc([As](=O)(O)O)ccc1O`, for which the inhibition is inactive: -10.2%. Under `Cc1cc2c(C(C)C)c(O)c(O)c(C=O)c2c(O)c1-c1c(C)cc2c(C(C)C)c(O)c(O)c(C=O)c2c1O` stands active: 50.9%. On to `Cc1cc(Cl)ccc1OC(C)C(=O)O` (stereo not given), for which the inhibition was inactive: -11.1%. With `O=c1[nH]c2ccccc2n1C1CCN(CCCC(c2ccc(F)cc2)c2ccc(F)cc2)CC1`, the inhibition is inactive: -6.24%. As for `CC12CN3CC(C)(CN(C1)C3c1cccnc1)C2=O` (stereo not given), the inhibition is inactive: -4.1%. On to `C[C@]12CCC(=O)C=C1CCC1C2CC[C@@]2(C)C1CC[C@@]2(O)CC#N` (stereo not given in full), for which the inhibition is inactive: -1.29%.

On to `CN[C@H](C)[C@H](O)c1ccccc1`, for which the inhibition was inactive: -1.69%. For `CCC1(c2ccccc2)C(=O)N(COC)C(=O)N(COC)C1=O`, the inhibition was inactive: 3.14%.

Take `O=c1cccc2n1C[C@H]1C[C@@H]2CN2CCCC[C@@H]12`: the inhibition is inactive: -2.79%.

For `O=C1CC[C@@]2(O)[C@H]3Cc4ccc(O)c5c4[C@@]2(CCN3CC2CC2)[C@H]1O5`, the inhibition is inactive: 1.93%. For `CN1C(=O)CN=C(c2ccc(Cl)cc2)c2cc(Cl)ccc21`, the inhibition was inactive: -6.72%. The value for `NCC1(c2ccc3c(c2)OCCO3)CCCC1` was inactive: -8.44%; that for `c1ccc2c(c1)Nc1ccccc1S2` was inactive: -8.34%; that for `CC(C)(C)C(O)C(Oc1ccc(Cl)cc1)n1cncn1` (stereo not given) was inactive: -13.8%.

On to `O=c1c2ccccc2[se]n1-c1ccccc1`, for which the inhibition is active: 90.3%. Turning to `C[N+]1(C)C2CCC1CC(OC(=O)C(CO)c1ccccc1)C2` (stereo not given), the inhibition is inactive: -8.6%. Under `C[C@H]1CC[C@@]2(C)[C@@H](CC[C@@H]3[C@@H]2CC[C@]2(C)[C@@H](O)CC[C@@H]32)C1` stands inactive: 0.49%; under `NCC(O)c1ccc(O)cc1` (stereo not given), inactive: -12.3%; under `C[N+]1(C)[C@@H]2CC(OC(=O)[C@H](CO)c3ccccc3)C[C@H]1[C@@H]1O[C@@H]12` (stereo not given in full), inactive: -5.12% and inactive: 3.91%. For `S=C1NCCN1`, the inhibition is inactive: -7.44%. The value for `c1ccc(Cn2ccnc2)cc1` was inactive: -3.99%.

On to `CC(C)C[C@H]1C(=O)N2CCCC2[C@]2(O)O[C@](NC(=O)[C@@H]3C=C4c5cccc6[nH]cc(c56)CC4N(C)C3)(C(C)C)C(=O)N12` (stereo not given in full), for which the inhibition is inactive: 22.5%. Under `CC(C)[C@H]1C(=O)N2CCC[C@H]2[C@]2(O)O[C@](NC(=O)[C@@H]3C=C4c5cccc6[nH]cc(c56)C[C@H]4N(C)C3)(C(C)C)C(=O)N12` stands inactive: 13.9%; under `C[C@H]1CCCC(=O)CCCCCc2cc(O)cc(O)c2C(=O)O1`, inactive: 9.92%; under `Clc1ccc(COC(Cn2ccnc2)c2ccc(Cl)cc2Cl)cc1` (stereo not given), inactive: -0.42%. Turning to `CN1C[C@H](CNC(=O)OCc2ccccc2)C[C@@H]2c3cccc4c3c(cn4C)C[C@H]21`, the inhibition is inactive: -1.72%. Turning to `O=C1NCCN2CCCC12` (stereo not given), the inhibition was inactive: -3.07%.

`OCc1cnc[nH]1`: the inhibition is inactive: -15.7%. As for `CCN(CC)C(=O)N[C@H]1C[C@@H]2c3cccc4[nH]cc(c34)C[C@H]2N(C)C1`, the inhibition was inactive: 3.53%.

In the case of `CC12CN3CC(c4ccccc4)(CN(C1)C31CCCCC1)C2=O`, the inhibition is inactive: -0.95%. On to `CC[C@@H](CO)NC(=O)[C@@H]1C=C2c3cccc4c3c(cn4C)C[C@H]2N(C)C1`, for which the inhibition was inactive: -5.9%.

Turning to `c1ccc2c(c1)OCC(C1=NCCN1)O2` (stereo not given), the inhibition is inactive: -1.86%. For the compound `CC[N+]1(C)CCCC(OC(=O)C(O)(c2ccccc2)c2ccccc2)C1` (stereo not given), the inhibition was inactive: -9.01%. Regarding `CCn1c(O)c(C(=O)CC2NCCc3ccccc32)c(=O)n(CC)c1=S` (stereo not given), the inhibition was inactive: -1.08%. For the compound `C[N+]1(C)CCc2cc3c(cc2[C@H]1[C@@H]1OC(=O)c2c1ccc1c2OCO1)OCO3`, the inhibition is inactive: -4.9% and inactive: -13.2%. Consider `O=c1c2ccccc2nc(/C=C/c2ccc3c(c2)OCO3)n1-c1ccccc1`, for which the inhibition is inactive: 1.81%. Turning to `C=C1CC[C@@]2(O)[C@H]3Cc4ccc(O)c5c4[C@@]2(CCN3CC2CC2)[C@H]1O5`, the inhibition was inactive: -0.92%. `O=C(CCCN1CCC2(CC1)C(=O)NCN2c1ccccc1)c1ccc(F)cc1`: the inhibition is inactive: 4.67%. `NCCc1c[nH]c2ccc(F)cc12`: the inhibition is inactive: -11.1%.

With `C=CC1CN2CCC1CC2[C@@H](OC(=O)c1ccc(OC)cc1)c1ccnc2ccccc12` (stereo not given in full), the inhibition was inactive: 1.67%. In the case of `Cc1ccc(/C=C2/C(=O)NC(=O)N(C)C2=O)cc1`, the inhibition was inactive: -3.1%. Consider `c1cnc2c(c1)ccc1ncccc12`, for which the inhibition is inactive: -6.23%. Under `CCOC(=O)c1cncn1C(C)c1ccccc1` (stereo not given) stands inactive: 1.91%.
